Results are given in words; binding and its absence hold for the method and conditions named.
Biological target: T1, Shrub (Drosophila) (UniProt Q8T0Q4)
T1 sequence: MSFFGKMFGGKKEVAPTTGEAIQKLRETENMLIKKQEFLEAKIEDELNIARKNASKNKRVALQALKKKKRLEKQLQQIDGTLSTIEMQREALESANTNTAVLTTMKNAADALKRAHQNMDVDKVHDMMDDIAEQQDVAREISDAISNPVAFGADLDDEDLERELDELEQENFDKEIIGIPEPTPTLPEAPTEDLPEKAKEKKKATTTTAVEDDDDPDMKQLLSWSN
Experiment: two-hybrid; yeast Y190 transformed with pGBKT7 and pVP16 constructs; Shrub as bait; selection on media lacking tryptophan and leucine, 3 days at 30°C; read-out β-galactosidase activity in yeast extracts

In the case of “Mop Bro-domain mutant I201D/V205D (aa 1-389) (Drosophila) (domain or fragment)”, the binding is reported as “no binding”.

From article PMC4327575
